For assay [1], the target named is T1, GST-fused CARF (UniProt Q9NXV6).
T1 sequence: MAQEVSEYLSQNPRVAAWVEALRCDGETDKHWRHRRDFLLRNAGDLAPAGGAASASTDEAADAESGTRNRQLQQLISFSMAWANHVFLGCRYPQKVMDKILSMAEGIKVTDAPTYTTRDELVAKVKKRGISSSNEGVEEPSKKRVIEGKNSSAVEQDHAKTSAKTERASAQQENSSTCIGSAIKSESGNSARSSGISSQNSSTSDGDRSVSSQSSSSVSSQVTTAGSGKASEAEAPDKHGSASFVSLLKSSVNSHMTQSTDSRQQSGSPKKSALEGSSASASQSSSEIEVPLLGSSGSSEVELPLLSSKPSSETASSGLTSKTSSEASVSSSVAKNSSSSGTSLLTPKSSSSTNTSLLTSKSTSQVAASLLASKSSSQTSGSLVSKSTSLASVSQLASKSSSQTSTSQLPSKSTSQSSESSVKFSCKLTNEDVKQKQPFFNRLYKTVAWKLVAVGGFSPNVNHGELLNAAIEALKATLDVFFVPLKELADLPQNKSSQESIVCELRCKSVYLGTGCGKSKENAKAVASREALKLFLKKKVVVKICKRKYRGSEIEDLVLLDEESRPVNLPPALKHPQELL
Description: pull-down; GST-CARF fusion protein purified and incubated with 7404 cell lysate; only the target purified.

Sequences of proteins named here, by UniProt entry; tags and fusion partners are left off.
UniProt P35222: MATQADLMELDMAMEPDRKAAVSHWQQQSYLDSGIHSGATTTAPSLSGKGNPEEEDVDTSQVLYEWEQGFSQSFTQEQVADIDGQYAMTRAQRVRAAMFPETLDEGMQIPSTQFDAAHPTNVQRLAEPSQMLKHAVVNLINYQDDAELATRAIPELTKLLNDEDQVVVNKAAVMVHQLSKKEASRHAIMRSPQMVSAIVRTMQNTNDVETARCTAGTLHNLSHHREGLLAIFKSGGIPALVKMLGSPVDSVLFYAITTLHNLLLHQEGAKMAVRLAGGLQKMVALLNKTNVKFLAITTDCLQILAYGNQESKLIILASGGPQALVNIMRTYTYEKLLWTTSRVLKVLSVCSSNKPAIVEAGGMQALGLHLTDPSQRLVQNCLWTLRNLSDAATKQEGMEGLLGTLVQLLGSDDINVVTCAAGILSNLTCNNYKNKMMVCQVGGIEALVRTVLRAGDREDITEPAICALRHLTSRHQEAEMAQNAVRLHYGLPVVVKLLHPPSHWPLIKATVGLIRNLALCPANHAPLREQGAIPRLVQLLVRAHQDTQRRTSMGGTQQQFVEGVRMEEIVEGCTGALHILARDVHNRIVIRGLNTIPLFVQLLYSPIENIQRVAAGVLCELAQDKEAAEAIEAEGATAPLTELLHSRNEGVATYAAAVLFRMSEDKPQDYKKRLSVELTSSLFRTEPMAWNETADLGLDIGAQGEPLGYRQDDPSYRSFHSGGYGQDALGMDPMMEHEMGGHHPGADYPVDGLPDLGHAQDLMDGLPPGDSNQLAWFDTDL

The target of assay [2] is beta-catenin (as in the co-precipitations with ICAT and TCF4, Figure 6E-F) (UniProt P35222). Description: co-IP; interaction of beta-catenin with ICAT or TCF4, with and without over-expression of CARF; cells and precipitated partner not stated.
Assay [3] concerns the target Flag-beta-catenin (UniProt P35222). Description: co-IP; immunoprecipitation from 7404 cells with exogenously expressed Flag-beta-catenin and myc-CARF; lysis in Tris-buffered saline pH 7.4, 150 mM NaCl, 1% NP-40; Protein A-Sepharose.
The target of assay [4] is beta-catenin (endogenously expressed) (human (endogenous in 7404 and Hep3B)) (UniProt P35222). Description: co-IP; immunoprecipitation of endogenously expressed proteins in 7404 and Hep3B cells; lysis in Tris-buffered saline pH 7.4, 150 mM NaCl, 1% NP-40; Protein A-Sepharose.

No constants are given. Whether binding was seen depends on the method and setting. In cells and extracts the contact can be indirect. Some entries that bind do so weakly or less than the wild type. For some of these results: Where a sequence is shown, tags or fusion partners need not be part of it.

Take “beta-catenin (endogenously expressed) (from UniProt P35222 1-781)”: the binding result in assay [1] is on record as “binds”.

B1: myc-tagged CARF (collaborator of ARF) (protein, UniProt Q9NXV6 1-580)
chain: MAQEVSEYLSQNPRVAAWVEALRCDGETDKHWRHRRDFLLRNAGDLAPAGGAASASTDEAADAESGTRNRQLQQLISFSMAWANHVFLGCRYPQKVMDKILSMAEGIKVTDAPTYTTRDELVAKVKKRGISSSNEGVEEPSKKRVIEGKNSSAVEQDHAKTSAKTERASAQQENSSTCIGSAIKSESGNSARSSGISSQNSSTSDGDRSVSSQSSSSVSSQVTTAGSGKASEAEAPDKHGSASFVSLLKSSVNSHMTQSTDSRQQSGSPKKSALEGSSASASQSSSEIEVPLLGSSGSSEVELPLLSSKPSSETASSGLTSKTSSEASVSSSVAKNSSSSGTSLLTPKSSSSTNTSLLTSKSTSQVAASLLASKSSSQTSGSLVSKSTSLASVSQLASKSSSQTSTSQLPSKSTSQSSESSVKFSCKLTNEDVKQKQPFFNRLYKTVAWKLVAVGGFSPNVNHGELLNAAIEALKATLDVFFVPLKELADLPQNKSSQESIVCELRCKSVYLGTGCGKSKENAKAVASREALKLFLKKKVVVKICKRKYRGSEIEDLVLLDEESRPVNLPPALKHPQELL
On to B1, for which the binding result in assay [2] and in assay [3] was “binds” in each case.

B2: CARF (endogenously expressed) (protein, UniProt Q9NXV6 1-580)
chain: MAQEVSEYLSQNPRVAAWVEALRCDGETDKHWRHRRDFLLRNAGDLAPAGGAASASTDEAADAESGTRNRQLQQLISFSMAWANHVFLGCRYPQKVMDKILSMAEGIKVTDAPTYTTRDELVAKVKKRGISSSNEGVEEPSKKRVIEGKNSSAVEQDHAKTSAKTERASAQQENSSTCIGSAIKSESGNSARSSGISSQNSSTSDGDRSVSSQSSSSVSSQVTTAGSGKASEAEAPDKHGSASFVSLLKSSVNSHMTQSTDSRQQSGSPKKSALEGSSASASQSSSEIEVPLLGSSGSSEVELPLLSSKPSSETASSGLTSKTSSEASVSSSVAKNSSSSGTSLLTPKSSSSTNTSLLTSKSTSQVAASLLASKSSSQTSGSLVSKSTSLASVSQLASKSSSQTSTSQLPSKSTSQSSESSVKFSCKLTNEDVKQKQPFFNRLYKTVAWKLVAVGGFSPNVNHGELLNAAIEALKATLDVFFVPLKELADLPQNKSSQESIVCELRCKSVYLGTGCGKSKENAKAVASREALKLFLKKKVVVKICKRKYRGSEIEDLVLLDEESRPVNLPPALKHPQELL
With B2, in assay [4], the binding result was “binds”.

Values taken from publication PMC5348329.
